PMC8390530
Like-named read-outs stand apart in the source and are kept apart here. Results are given in words; binding and its absence hold for the method and conditions named. Some binding calls cover weakened binding; strength is not graded here.

Sequences of proteins named here, by UniProt entry; tags and fusion partners are left off.
UniProt P09022: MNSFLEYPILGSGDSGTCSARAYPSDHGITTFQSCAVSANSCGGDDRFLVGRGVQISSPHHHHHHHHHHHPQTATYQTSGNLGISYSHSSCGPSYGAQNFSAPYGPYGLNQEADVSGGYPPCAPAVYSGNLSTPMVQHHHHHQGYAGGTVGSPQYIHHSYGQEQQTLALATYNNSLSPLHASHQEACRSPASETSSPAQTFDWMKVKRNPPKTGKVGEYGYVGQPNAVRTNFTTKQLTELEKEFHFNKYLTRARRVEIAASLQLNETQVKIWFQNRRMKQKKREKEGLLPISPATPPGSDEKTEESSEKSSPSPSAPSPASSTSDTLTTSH
UniProt P17919: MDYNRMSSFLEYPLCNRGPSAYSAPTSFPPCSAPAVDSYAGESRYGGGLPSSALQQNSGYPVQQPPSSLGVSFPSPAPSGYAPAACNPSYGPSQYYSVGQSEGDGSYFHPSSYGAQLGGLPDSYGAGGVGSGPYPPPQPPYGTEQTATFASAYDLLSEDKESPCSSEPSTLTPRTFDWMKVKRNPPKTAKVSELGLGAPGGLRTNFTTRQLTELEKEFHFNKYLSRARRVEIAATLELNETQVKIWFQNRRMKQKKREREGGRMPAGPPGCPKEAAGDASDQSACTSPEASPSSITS

T1: PBX1A (UniProt P41778)
T1 sequence: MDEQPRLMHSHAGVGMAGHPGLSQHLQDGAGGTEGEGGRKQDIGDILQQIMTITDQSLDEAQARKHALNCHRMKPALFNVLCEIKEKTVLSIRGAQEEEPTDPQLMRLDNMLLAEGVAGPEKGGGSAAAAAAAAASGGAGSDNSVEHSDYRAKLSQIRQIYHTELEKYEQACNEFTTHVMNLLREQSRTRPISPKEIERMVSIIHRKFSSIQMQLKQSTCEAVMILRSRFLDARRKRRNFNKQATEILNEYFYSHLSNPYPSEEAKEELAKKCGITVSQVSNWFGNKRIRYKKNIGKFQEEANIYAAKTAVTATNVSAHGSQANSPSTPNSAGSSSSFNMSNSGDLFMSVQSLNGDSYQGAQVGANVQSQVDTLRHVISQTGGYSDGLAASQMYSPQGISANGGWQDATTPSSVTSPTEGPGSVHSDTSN

T2: PBX1B (UniProt P41778)
T2 sequence: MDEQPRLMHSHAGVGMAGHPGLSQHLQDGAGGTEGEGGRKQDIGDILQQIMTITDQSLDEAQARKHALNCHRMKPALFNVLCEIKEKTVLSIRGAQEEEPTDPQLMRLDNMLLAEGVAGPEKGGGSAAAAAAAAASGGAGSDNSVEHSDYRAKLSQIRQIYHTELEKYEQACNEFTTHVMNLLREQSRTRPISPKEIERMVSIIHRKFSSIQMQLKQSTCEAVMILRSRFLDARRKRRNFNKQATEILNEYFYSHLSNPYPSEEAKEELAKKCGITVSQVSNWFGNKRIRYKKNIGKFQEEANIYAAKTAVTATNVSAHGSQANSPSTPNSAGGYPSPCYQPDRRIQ

T3: PBX3A (UniProt O35317)
T3 sequence: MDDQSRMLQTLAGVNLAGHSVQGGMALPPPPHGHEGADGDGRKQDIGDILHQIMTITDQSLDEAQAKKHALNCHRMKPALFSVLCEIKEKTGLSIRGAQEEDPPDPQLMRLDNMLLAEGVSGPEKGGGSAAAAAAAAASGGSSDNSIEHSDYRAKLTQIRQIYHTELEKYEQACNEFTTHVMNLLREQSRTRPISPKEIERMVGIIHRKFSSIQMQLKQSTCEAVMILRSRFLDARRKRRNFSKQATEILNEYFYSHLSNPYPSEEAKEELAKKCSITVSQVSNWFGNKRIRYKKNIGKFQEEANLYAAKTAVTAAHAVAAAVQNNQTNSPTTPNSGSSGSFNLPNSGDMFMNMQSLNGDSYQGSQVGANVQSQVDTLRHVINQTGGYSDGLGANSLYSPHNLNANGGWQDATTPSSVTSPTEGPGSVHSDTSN

T4: PBX2 (UniProt O35984)
T4 sequence: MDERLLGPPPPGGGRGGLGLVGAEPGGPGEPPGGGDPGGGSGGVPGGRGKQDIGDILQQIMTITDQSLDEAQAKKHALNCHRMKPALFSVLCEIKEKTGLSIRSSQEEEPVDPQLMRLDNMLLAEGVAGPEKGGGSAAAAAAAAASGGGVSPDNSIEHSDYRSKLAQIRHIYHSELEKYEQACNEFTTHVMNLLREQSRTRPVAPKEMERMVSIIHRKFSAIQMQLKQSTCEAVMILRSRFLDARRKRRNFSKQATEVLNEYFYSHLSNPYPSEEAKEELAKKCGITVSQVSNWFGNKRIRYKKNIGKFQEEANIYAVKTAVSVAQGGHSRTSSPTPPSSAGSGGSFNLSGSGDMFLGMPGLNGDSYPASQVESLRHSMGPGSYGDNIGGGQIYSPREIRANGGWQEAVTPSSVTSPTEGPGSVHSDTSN


Legend:
Test in all cases: native gel or EMSA; in vitro-translated proteins (2 ul reticulocyte lysate with the desired combination) with 32P-labelled Msgn1-P2 oligonucleotide in PPH binding buffer (10 mM Tris-Cl pH 7.5, 75 mM NaCl, 1 mM EDTA, 6% glycerol, 3 mM spermidine, 1 mM DTT, poly(dIdC)), 30 min on ice, 5% acrylamide gel in 0.5x TBE; the protein complexes are seen only as bound to the labelled DNA
PBX1A [1] = target: T1, PBX1A
PBX1B [2] = target: T2, PBX1B
PBX3A [3] = target: T3, PBX3A
PBX2 [4] = target: T4, PBX2
PBX1A [5] = target: T1, PBX1A; remark: listed apart in the source
PBX1B [6] = target: T2, PBX1B; remark: listed apart in the source
PBX3A [7] = target: T3, PBX3A; remark: listed apart in the source
PBX2 [8] = target: T4, PBX2; remark: listed apart in the source

| binding (PBX1A [1]) | binding (PBX1B [2]) | binding (PBX3A [3]) | binding (PBX2 [4]) | binding (PBX1A [5]) | binding (PBX1B [6]) | binding (PBX3A [7]) | binding (PBX2 [8]) | Molecule |
| --- | --- | --- | --- | --- | --- | --- | --- | --- |
| binds | binds | binds | binds | – | – | – | – | HOXA1 (from UniProt P09022 1-331) |
| binds | binds | binds | binds | – | – | – | – | HOXB1 (from UniProt P17919 1-297) |
| – | – | – | – | binds | binds | binds | binds | MEIS2 (protein, UniProt P97367 1-477) MAQRYDELPHYGGMDGVGVPASMYGDPHAPRPIPPVHHLNHGPPLHATQHYGAHAPHPNVMPASMGSAVNDALKRDKDAIYGHPLFPLLALVFEKCELATCTPREPGVAGGDVCSSDSFNEDIAVFAKQVRAEKPLFSSNPELDNLMIQAIQVLRFHLLELEKVHELCDNFCHRYISCLKGKMPIDLVIDERDGSSKSDHEELSGSSTNLADHNPSSWRDHDDATSTHSAGTPGPSSGGHASQSGDNSSEQGDGLDNSVASPGTGDDDDPDKDKKRQKKRGIFPKVATNIMRAWLFQHLTHPYPSEEQKKQLAQDTGLTILQVNNWFINARRRIVQPMIDQSNRAGFLLDPSVSQGAAYSPEGQPMGSFVLDGQQHMGIRPAGLQSMPGDYVSQGGPMGMGMAQPSYTPPQMTPHPTQLRHGPPMHSYLPSHPHHPAMVMHGGPPTHPGMTMSAQSPTMLNSVDPNVGGQVMDIHAQ |
| – | – | – | – | binds | binds | binds | binds | PREP1 (protein, UniProt O70477 1-436) MMATQTLSIDSYQDGQQMQVVTELKTEQDPNCSDPDAEGVSPPPIESQTPMDADKQAIYRHPLFPLLALLFEKCEQSTQGSEGTTSASFDVDIENFVRKQEKDGKPFFCEDPETDNLMVKAIQVLRIHLLELEKVNELCKDFCSRYIACLKTKMNSETLLSGEPGSPYSPVQSQQIQSAITGTLSPQGIVVPASALQQGNVTMATVAGGTVYQPVTVVTPQGQVVTQALSPGTIRIQNSQLQLQLNQDLSILHQEDGSSKNKRGVLPKHATNVMRSWLFQHIGHPYPTEDEKKQIAAQTNLTLLQVNNWFINARRRILQPMLDSSCSETPKTKKKPAQNRPVQRFWPDSLASGVAQATPSELAMSEGAVVTITTPVNMNVDSLQSLSSDGATLAVQQVMMAGQSEDESVDSTEDEGGALAPTHISGLVLENSDSLQ |
